Laboratory results: PubChem BioAssay AID1259284 (Sanger Institute, 2017)
This is one part, drawn at random, of 794 reagents. 16 of them (2%) count as active. 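Calls concern knock-down without drug only; drug synergy was judged apart, with scores above 0.15 taken as synergy.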 Not all columns of the deposit are shown. No sequences are given here. Not given: the amount of reagent, the time to read-out.

Purpose: 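siRNA screen across the kinome seeking partners for BYL719, cetuximab or trametinib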 (primary screen)
Cell system: SW48 human colorectal cancer cells
Knock-down reagent: siRNA pool against human genes
Challenge: anchor drug BYL719 at 1 µM, cetuximab at 5 µg/ml or trametinib at 10 nM, or DMSO vehicle alone
Measurement: 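Cell viability relative to non-targeting pool wells, replicate mean, with robust z-scores and drug synergy scores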
Direction: robust z-score, no drug: higher = more cells survive knock-down
Active means: 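a knock-down is essential if viability without drug gives a robust z-score under -3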
Calls: active = essential without drug; inactive = no change without drug

The opening 2 records as a preview:
CTCF | robust z-score, no drug: -1.06; outcome: inactive
PIK3R2 | robust z-score, no drug: 0.426; outcome: inactive

The listing, from the first entry:
CTCF | robust z-score, no drug: -1.06; outcome: inactive
PIK3R2 | robust z-score, no drug: 0.426; outcome: inactive
PRKAR2B | robust z-score, no drug: -2.6; outcome: inactive
RPS6KC1 | robust z-score, no drug: 0.0528; outcome: inactive
ARAF | robust z-score, no drug: 0.426; outcome: inactive
MAPKAPK2 | robust z-score, no drug: 0.426; outcome: inactive
CAMK4 | robust z-score, no drug: 0.426; outcome: inactive
SKAP1 | robust z-score, no drug: 0.426; outcome: inactive
EXOSC10 | robust z-score, no drug: 0.426; outcome: inactive
IPPK | robust z-score, no drug: 0.426; outcome: inactive
SCYL1 | robust z-score, no drug: 0.426; outcome: inactive
IRAK4 | robust z-score, no drug: 0.426; outcome: inactive
DYRK4 | robust z-score, no drug: 0.426; outcome: inactive
KSR1 | robust z-score, no drug: -0.699; outcome: inactive
TNIK | robust z-score, no drug: 0.426; outcome: inactive
AKT3 | robust z-score, no drug: 0.0247; outcome: inactive
MTOR | robust z-score, no drug: 0.426; outcome: inactive
PRAG1 | robust z-score, no drug: 0.426; outcome: inactive
MAPK12 | robust z-score, no drug: 0.426; outcome: inactive
CDKN2C | robust z-score, no drug: 0.426; outcome: inactive
CDK16 | robust z-score, no drug: -0.578; outcome: inactive
MVK | robust z-score, no drug: -1; outcome: inactive
MYO3B | robust z-score, no drug: 0.426; outcome: inactive
PDPK1 | robust z-score, no drug: 0.426; outcome: inactive
MPP2 | robust z-score, no drug: -0.581; outcome: inactive
DAPK2 | robust z-score, no drug: 0.426; outcome: inactive
CMPK1 | robust z-score, no drug: 0.426; outcome: inactive
GUCY2D | robust z-score, no drug: -5.42; outcome: active
